The whole screen tested about 300,000 compounds, of which about 5,400 (1.8%) were called active. The inconclusive results got no clear call from the source; some entries with a clear call stand among them for comparison. The call rests on the fitted dose curve; tested in HEK293 cells. A potency beside an inconclusive call is a rough fit, not a confirmed value.
Assay: qHTS for inhibitors of binding or entry into cells for Marburg Virus
Conditions: Marburg virus pseudotyped entry inhibition, cell reporter; activity change, negative = inhibition: at 37.8 µM (top of the series) unless noted
On the % scale 0 is the no-effect control and ±100 the full control effect; potency means the concentration at half of the fitted maximal effect.

Compound | Potency | activity change, negative = inhibition
O=C(COC(=O)c1cc(S(=O)(=O)N2CCCC2)ccc1O)NCc1ccccc1 | inconclusive: 14.1 µM [activator, single point] | –
COc1ccc(N(CC(=O)Nc2ccccc2OC)S(=O)(=O)c2ccc(NC(C)=O)cc2)cc1 | inconclusive: 7.94 µM [inhibitor, partial curve, poor fit] | –
CCC(=O)c1ccc(OCC(=O)OC(C)C(=O)NCc2ccc3c(c2)OCO3)cc1 (centres undefined) | inconclusive: 15.8 µM [activator, single point] | –
COC(=O)C12C[C@@H](C)C3C(C)C(c4ccccc4C31)N2C(=O)C(F)(F)F (some centres undefined) | inconclusive: 0.119 µM [inhibitor, full curve, poor fit] | –
Cc1cccc(NC(=S)N(CCN2CCOCC2)Cc2cc3cc4c(cc3[nH]c2=O)OCO4)c1 | – | inactive: -15.6% [at 46.1 µM]
Cc1ccccc1OCCN1C(=O)c2ccccc2C1=O | – | inactive: -0.253%
CCN(CC(=O)Nc1ccc(Br)cc1F)CC(=O)NC1CCS(=O)(=O)C1 (centres undefined) | – | inactive: -10.2%
CN(C)/C=C/C(=O)c1ccc(S(=O)(=O)c2ccccc2)cc1 | – | inactive: -0.502% [at 46.1 µM]
CCc1nn(CCCC(=O)NCc2ccccc2Br)c(=O)c2cc3occc3n12 | inactive | –
Cc1c(NC(=O)CN(c2ccc(F)cc2)S(=O)(=O)c2ccccc2)c(=O)n(-c2ccccc2)n1C | – | inactive: 13.7%
Cc1ccc(OC(=O)c2cc(-c3ccc4c(c3)OCCO4)on2)c(C)c1 | – | inactive: 15.1% [at 46.1 µM]
COc1ccc(C(=O)Nc2ccccc2C(=O)O)cc1Cl | inconclusive: 20 µM [inhibitor, single point] | –
O=C1/C(=C/c2ccccn2)COc2ccccc21 | inconclusive: 2.51 µM [activator, partial curve, poor fit] | –
CC1CCN(S(=O)(=O)c2ccc3c(c2)N(CC(=O)NC(C)C)C(=O)CS3)CC1 | – | inactive: -27% [at 46.1 µM]
COCCCN(C(=O)Cc1coc2cc(C)c(C)cc12)c1c(N)n(Cc2ccccc2)c(=O)[nH]c1=O | – | inactive: -10.1% [at 46.1 µM]
COc1ccccc1OC(C)C(=O)NCC1(N2CCOCC2)CCCCC1 (centres undefined) | inconclusive: 6.31 µM [inhibitor, single point] | –
COc1ccc(-n2c(O)c(C(C)=NCCCn3ccnc3)c(=O)[nH]c2=O)cc1 | inconclusive: 5.8 µM [inhibitor, single point] | –
CCS(=O)(=O)N1N=C(c2ccc(C)cc2)CC1c1cc2ccc(OC)cc2nc1Cl (centres undefined) | – | inactive: -29.9% [at 46.1 µM]
O=C(NCC(c1ccco1)N1CCCC1)c1ccc(Cl)c(S(=O)(=O)N2CCc3ccccc32)c1 (centres undefined) | active: 11.2 µM | –
CC(C)Oc1ccc(C(=O)N2CCCC2C(=O)O)cc1 (centres undefined) | – | inactive: -5.55%
Cc1ccc(Cn2cccc2C2=NC(C)(C)CO2)cc1 | – | inactive: -21.2% [at 46.1 µM]
O=C(Nc1ccc2nn(-c3ccccc3)nc2c1)c1cccnc1 | inconclusive: 5.62 µM [activator, single point] | –

Compound | Potency | activity change, negative = inhibition
Cc1ccc(-n2c(O)c(/C=N/c3ncn[nH]3)c3ccccc3c2=O)cc1 | inconclusive: 3.55 µM [inhibitor, partial curve, poor fit] | –
Cc1ccc(S(=O)(=O)N2CCN(C(=O)COC(=O)CNC(=O)c3ccc(Cl)cc3Cl)CC2)cc1 | inconclusive: 6.31 µM [inhibitor, single point] | –
Cc1cc(NC(=O)CCSc2nc(-c3ccco3)cc(C(F)(F)F)n2)n(-c2ccccc2)n1 | inconclusive: 8.91 µM [inhibitor, partial curve, poor fit] | –
CC(C)c1cccc(OCCCCN(C)C)c1 | inconclusive: 29.1 µM [inhibitor, single point] | –
Cc1cccc(N2CCN(C(=O)c3cc(S(=O)(=O)N(C)C)ccc3N3CCCC3)CC2)c1C | inconclusive: 35.5 µM [inhibitor, single point] | –
CCOC(=O)c1c(NC(=O)CN2CCN(C)CC2)sc(C(=O)Nc2ccccc2)c1C | inconclusive: 11.2 µM [inhibitor, partial curve, poor fit] | –
O=S(=O)(Nc1cccc(S(=O)(=O)N2CCCC2)c1)c1cccs1 | inconclusive: 1 µM [inhibitor, single point] | –
COc1ccc(CCNC(=O)C(=O)NCC2OCCN2S(=O)(=O)c2ccc(Br)cc2)cc1OC (centres undefined) | inconclusive: 13 µM [inhibitor, single point] | –
CC(=O)c1cccc(OCC(=O)c2cc(C)n(-c3cc(C)on3)c2C)c1 | – | inactive: -28.6%
CCOC(=O)Cc1csc(NC(=O)CSc2nnc(-c3ccc(F)cc3)o2)n1 | inconclusive: 0.366 µM [inhibitor, partial curve, poor fit] | –
O=C(COC(=O)COc1ccccc1)NCc1ccco1 | inconclusive: 7.94 µM [activator, partial curve, poor fit] | –
O=C(COC(=O)c1ccccc1-c1ccccc1[N+](=O)[O-])c1ccccc1 | – | inactive: -2.87%
Cc1cc(=O)[nH]c(SCCCOc2ccc3c(c2)CCC3)n1 | inconclusive: 6.51 µM [activator, single point] | –
Cc1ccc(NC(=O)N2CCCN(Cc3ccc(F)cc3)C2)cc1C | active: 6.31 µM | –
Cc1cc(NC(=O)c2ccc(S(=O)(=O)N(C)CC3CCCO3)cc2)no1 (centres undefined) | inconclusive: 0.562 µM [activator, full curve, poor fit] | –
COc1ccc(/C=C\c2onc(C)c2S(=O)(=O)N2CCC(C(=O)Nc3ccccc3OC)CC2)cc1 | – | inactive: -15.4% [at 46.1 µM]
CC(NC(=O)Cc1ccc(S(=O)(=O)N2CCOCC2)s1)c1ccc(Br)cc1 (centres undefined) | inconclusive: 0.316 µM [activator, partial curve, poor fit] | –
Clc1ccc(-c2nc3ncccn3c2Cl)cc1 | inconclusive: 17.8 µM [activator, partial curve] | –
CCCCn1c(SCc2ccc(Cl)cc2)nc2c1c(=O)[nH]c(=O)n2C | inconclusive: 35.5 µM [inhibitor, single point] | –
Nc1nc(Cl)nc(N(c2ccccc2)c2ccccc2)n1 | – | inactive: 3.07%
O=C(Nc1ccc(Cc2ccncc2)cc1)c1ccc(S(=O)(=O)N2CCOCC2)cc1 | inconclusive: 35.5 µM [inhibitor, partial curve, poor fit] | –
COc1ccc(/C=C2\CCc3ccccc3C2=O)cc1Cn1cccn1 | active: 18.3 µM | –

Random excerpt: 2 entries already listed
Compound | Potency | activity change, negative = inhibition
Nc1nc(Cl)nc(N(c2ccccc2)c2ccccc2)n1 | – | inactive: 3.07%
Cc1cccc(N2CCN(C(=O)c3cc(S(=O)(=O)N(C)C)ccc3N3CCCC3)CC2)c1C | inconclusive: 35.5 µM [inhibitor, single point] | –

— PubChem BioAssay AID540276 (National Center for Advancing Translational Sciences (NCATS), 2011)
